Assay results: publication doi:10.1101/2020.01.13.904318 (bioRxiv, 2020)
The exact form of at least one protein or probe is not confirmed. Weaker means in comparison with the reference protein, sequence or condition of that experiment. Tags and fusion partners may be left off the protein sequences shown.

Target: T1, FrlR (Eco) (Escherichia coli) (UniProt P45544)
T1 sequence (looked up, limits assumed): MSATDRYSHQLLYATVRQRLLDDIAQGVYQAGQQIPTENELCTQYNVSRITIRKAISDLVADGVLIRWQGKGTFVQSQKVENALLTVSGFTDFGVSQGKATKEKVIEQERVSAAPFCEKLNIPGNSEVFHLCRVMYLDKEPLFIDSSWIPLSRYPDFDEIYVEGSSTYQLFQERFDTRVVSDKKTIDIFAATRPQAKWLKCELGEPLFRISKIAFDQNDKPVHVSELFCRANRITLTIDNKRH
Assay: SPR
Conditions: no effector

ACGGCCAGTGAATTCTAATACGACTCACTATAGGGATAAAAAAATAAATT (double strand) [Random control (Random-Fw/Random-Rev)]
binding result: binds more weakly
